The exact form of at least one protein or probe is not confirmed. At least one result comes from cells or an extract, where the contact may be indirect. For part of these data: The comparison behind a weaker result is the experiment's own reference, which may not be listed here.
Assays:
[1] = target: p53 (nuclear extract of SN38-treated MCF10A/OD) (UniProt P04637); test: EMSA; details: SN38 10 ng/ml 24 h, dimer bands only, no tetramer; EMSA: 20 fmol biotin probe, 9 ug nuclear extract or 0.15 uM p53, 2 pmol poly(dI-dC), 2.5% glycerol, 0.05% NP40, 1.5 mM MgCl2, 1 mM EDTA (LightShift kit); 4% native gel; protein in an extract; label: 3' biotin on both strands
[2] = target: p53 (nuclear extract of SN38-treated MCF10A) (UniProt P04637); test: EMSA; details: EMSA: 20 fmol biotin probe, 9 ug nuclear extract or 0.15 uM p53, 2 pmol poly(dI-dC), 2.5% glycerol, 0.05% NP40, 1.5 mM MgCl2, 1 mM EDTA (LightShift kit), 4% native gel, protein in an extract, label: 3' biotin on both strands

## AAACAAACAAAACAATTGGCCTTGGGAAACTGGACAATCTTG (double strand) [cyclin B promoter head-to-tail p53 element probe]
[1]
  binding result: binds
[2]; SN38 10 ng/ml 24 h, bands of tetramer and dimer size, lost with 200-fold unlabeled probe
  binding result: binds
[2]; untreated MCF10A extract (no SN38), low p53 level, significantly reduced bands
  binding result: binds more weakly
